# Test results reported in PubChem BioAssay (EPA / NIEHS).
# Sequences of proteins named here, by UniProt entry; tags and fusion partners are left off. A change or cut given only in a name is not applied to a line headed by its entry.
# UniProt P11362, whole entry, looked up: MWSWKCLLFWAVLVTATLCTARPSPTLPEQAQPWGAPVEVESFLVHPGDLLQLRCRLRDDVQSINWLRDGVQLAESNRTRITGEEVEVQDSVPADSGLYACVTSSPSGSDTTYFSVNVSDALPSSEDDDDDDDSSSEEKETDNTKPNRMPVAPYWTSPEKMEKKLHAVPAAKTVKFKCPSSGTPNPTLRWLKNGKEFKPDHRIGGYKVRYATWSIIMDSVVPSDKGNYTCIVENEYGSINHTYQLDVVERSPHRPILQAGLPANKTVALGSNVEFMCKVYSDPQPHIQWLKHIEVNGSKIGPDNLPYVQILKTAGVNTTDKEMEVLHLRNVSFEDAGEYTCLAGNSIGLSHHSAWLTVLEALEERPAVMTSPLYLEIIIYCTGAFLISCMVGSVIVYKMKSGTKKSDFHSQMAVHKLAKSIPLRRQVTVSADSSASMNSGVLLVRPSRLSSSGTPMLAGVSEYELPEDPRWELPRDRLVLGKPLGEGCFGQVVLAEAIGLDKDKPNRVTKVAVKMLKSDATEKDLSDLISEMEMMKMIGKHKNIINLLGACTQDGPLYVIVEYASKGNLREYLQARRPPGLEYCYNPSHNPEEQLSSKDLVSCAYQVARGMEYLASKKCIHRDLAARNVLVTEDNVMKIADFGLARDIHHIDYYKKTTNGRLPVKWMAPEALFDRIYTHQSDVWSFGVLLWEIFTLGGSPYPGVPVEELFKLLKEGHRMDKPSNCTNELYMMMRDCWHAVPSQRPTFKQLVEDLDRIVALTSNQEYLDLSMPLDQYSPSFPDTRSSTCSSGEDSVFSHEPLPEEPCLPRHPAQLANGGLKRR
# UniProt Q9UBN7: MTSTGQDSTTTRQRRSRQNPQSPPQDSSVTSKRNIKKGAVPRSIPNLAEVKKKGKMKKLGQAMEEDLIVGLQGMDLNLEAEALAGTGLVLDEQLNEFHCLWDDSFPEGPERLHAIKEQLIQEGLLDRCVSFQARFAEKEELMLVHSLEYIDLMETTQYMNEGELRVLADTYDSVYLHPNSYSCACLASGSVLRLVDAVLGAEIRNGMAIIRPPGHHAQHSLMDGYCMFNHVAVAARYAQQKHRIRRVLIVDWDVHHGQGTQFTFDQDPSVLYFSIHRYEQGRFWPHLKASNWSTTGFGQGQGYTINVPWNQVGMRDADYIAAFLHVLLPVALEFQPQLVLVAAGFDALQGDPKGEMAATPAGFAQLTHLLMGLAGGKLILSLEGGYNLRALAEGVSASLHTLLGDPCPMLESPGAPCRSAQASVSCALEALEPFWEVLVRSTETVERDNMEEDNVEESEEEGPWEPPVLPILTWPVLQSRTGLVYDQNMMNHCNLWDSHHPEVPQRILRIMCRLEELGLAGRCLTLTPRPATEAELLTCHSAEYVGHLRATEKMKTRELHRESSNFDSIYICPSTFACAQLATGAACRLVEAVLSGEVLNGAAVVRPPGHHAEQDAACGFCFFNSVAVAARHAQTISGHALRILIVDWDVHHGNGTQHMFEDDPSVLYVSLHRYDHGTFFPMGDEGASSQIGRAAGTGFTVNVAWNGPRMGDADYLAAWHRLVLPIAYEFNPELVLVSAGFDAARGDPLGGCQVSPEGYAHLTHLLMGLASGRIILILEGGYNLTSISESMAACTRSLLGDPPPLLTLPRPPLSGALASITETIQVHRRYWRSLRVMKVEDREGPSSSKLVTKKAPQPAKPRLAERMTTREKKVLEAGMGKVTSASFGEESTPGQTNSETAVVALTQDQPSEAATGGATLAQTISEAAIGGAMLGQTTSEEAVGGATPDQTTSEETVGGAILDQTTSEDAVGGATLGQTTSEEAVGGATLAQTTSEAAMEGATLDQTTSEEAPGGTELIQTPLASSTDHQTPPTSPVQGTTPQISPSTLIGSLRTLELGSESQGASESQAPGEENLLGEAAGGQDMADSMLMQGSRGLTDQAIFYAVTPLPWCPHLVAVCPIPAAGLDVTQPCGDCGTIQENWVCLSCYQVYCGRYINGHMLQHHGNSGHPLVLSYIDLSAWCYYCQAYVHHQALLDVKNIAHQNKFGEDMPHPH
# UniProt P42575: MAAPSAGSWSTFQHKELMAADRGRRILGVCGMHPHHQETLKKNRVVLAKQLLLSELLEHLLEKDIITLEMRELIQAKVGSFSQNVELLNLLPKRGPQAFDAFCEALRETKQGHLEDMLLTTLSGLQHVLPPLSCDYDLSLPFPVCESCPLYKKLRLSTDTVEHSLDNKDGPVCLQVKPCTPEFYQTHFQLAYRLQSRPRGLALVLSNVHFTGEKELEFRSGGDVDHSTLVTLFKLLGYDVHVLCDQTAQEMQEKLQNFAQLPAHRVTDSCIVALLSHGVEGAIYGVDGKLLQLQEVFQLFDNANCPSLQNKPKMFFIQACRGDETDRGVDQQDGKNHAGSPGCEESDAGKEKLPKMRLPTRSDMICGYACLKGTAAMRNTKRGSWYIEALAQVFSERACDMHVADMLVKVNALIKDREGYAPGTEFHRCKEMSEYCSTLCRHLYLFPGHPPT
# UniProt P29323: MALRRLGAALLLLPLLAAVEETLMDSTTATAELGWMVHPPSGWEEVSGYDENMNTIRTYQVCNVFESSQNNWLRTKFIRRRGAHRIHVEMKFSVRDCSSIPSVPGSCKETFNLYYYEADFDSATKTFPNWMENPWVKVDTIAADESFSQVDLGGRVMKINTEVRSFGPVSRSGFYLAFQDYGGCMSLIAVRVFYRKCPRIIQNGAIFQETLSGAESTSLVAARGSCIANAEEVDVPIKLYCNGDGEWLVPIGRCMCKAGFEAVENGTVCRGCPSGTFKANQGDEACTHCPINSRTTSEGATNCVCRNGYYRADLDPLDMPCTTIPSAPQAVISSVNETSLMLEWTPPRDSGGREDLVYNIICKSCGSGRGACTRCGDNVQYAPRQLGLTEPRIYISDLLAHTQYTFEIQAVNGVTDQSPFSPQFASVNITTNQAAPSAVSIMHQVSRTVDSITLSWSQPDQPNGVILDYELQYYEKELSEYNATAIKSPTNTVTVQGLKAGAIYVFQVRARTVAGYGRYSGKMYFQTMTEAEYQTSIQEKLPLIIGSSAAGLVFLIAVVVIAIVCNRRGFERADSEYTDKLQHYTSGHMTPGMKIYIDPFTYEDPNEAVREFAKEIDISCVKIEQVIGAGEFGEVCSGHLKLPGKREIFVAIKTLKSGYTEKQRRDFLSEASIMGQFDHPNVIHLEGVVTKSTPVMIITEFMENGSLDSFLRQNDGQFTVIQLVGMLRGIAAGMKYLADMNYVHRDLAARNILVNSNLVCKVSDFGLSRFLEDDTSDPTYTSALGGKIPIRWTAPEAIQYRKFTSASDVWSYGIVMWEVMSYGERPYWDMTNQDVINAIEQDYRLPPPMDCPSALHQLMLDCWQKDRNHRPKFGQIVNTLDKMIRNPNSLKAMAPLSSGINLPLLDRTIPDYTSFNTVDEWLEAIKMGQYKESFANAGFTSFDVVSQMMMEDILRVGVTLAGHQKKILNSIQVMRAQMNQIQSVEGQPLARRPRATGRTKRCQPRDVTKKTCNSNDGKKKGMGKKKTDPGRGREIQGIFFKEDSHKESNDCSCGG
# UniProt O15111: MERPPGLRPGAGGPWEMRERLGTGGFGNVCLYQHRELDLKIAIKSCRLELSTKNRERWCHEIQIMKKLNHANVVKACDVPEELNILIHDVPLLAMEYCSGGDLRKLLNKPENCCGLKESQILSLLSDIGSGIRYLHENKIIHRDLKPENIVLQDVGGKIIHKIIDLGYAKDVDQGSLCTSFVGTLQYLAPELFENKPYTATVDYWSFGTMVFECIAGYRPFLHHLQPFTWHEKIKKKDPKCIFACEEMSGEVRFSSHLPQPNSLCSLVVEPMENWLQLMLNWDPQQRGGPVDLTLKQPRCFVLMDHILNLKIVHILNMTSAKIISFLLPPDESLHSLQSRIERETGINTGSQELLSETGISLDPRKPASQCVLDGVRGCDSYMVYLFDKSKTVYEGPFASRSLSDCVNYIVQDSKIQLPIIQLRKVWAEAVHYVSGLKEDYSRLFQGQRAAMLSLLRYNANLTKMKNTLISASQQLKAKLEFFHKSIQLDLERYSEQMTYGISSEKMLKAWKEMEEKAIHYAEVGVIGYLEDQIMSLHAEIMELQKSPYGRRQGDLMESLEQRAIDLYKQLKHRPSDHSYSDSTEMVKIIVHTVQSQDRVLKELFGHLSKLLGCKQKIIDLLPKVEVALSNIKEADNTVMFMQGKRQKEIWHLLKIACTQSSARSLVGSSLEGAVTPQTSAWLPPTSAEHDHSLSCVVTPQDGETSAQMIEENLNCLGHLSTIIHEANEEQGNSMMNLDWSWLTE
# UniProt P20789, whole entry, looked up: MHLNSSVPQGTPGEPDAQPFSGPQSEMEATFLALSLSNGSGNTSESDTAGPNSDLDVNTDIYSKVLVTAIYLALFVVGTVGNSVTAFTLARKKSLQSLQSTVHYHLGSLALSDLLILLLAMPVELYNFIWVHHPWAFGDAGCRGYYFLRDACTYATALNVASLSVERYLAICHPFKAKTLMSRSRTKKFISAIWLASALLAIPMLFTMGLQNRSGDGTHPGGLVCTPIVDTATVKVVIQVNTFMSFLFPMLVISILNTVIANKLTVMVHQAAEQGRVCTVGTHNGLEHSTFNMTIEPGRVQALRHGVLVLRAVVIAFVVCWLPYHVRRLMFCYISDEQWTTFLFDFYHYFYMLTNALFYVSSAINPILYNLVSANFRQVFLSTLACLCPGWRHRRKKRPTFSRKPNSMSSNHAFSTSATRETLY
# UniProt P11510: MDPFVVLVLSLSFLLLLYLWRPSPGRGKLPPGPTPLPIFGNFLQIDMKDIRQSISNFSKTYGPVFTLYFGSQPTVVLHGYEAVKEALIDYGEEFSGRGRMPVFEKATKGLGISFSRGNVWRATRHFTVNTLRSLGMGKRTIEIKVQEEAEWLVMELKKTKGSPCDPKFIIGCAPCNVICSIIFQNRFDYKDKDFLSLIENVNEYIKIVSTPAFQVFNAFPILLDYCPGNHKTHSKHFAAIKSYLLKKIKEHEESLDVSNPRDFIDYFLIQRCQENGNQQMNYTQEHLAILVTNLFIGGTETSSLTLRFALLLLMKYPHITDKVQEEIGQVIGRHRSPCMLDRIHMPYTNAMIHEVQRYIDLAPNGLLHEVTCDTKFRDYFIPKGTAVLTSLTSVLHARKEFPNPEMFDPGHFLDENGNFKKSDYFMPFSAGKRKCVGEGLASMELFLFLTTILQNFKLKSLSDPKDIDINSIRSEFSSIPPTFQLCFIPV
# UniProt P67775, whole entry, looked up: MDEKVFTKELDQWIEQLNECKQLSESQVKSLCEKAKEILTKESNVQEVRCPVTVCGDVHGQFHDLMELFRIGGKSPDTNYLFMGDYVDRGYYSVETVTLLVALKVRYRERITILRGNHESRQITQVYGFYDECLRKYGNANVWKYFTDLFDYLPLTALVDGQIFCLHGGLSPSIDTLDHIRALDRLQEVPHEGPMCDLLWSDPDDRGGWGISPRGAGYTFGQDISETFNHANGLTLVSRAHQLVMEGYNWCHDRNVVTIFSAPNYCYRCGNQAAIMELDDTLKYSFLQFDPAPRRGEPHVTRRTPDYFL
# UniProt P03956: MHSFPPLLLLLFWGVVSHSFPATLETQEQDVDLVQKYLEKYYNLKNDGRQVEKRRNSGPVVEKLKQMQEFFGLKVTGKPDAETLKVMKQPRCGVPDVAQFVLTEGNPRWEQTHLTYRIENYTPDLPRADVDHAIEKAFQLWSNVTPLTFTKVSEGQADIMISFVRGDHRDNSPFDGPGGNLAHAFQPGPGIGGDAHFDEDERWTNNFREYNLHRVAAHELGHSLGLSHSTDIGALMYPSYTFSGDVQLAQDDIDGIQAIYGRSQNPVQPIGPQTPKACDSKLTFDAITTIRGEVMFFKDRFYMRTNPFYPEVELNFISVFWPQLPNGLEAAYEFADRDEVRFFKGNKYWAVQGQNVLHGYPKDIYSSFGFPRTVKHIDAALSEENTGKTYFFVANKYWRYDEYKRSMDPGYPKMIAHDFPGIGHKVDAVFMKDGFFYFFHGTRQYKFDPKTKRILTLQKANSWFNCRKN
# UniProt P70536: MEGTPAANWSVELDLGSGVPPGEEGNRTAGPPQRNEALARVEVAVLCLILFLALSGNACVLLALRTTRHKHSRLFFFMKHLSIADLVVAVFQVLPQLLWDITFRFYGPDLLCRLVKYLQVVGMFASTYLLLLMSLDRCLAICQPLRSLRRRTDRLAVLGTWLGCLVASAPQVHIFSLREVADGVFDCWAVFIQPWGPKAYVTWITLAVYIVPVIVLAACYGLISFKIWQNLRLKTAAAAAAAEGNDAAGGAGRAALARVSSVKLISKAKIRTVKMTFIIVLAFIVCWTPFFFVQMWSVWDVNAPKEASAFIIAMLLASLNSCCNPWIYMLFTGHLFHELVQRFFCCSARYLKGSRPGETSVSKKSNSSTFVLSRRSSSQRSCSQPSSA
# The inconclusive results got no clear call from the source; some entries with a clear call stand among them for comparison. For some assays here: Where the call is inconclusive, the potency comes from a doubtful curve fit. Calls of active or inactive are those of the source. Rule for the calls: active = hit-call score of the fitted dose curve at least 0.9, where 1 is the maximum; inconclusive = response in the unintended direction; inactive = score below 0.9.
# Columns and labels:
# [1] = target: human AMP-activated Protein Kinase, alpha 1 (AMPKa1), PRKAA1 (gene 5562) (UniProt Q13131); assay: NVS_ENZ_hAMPKa1: NovaScreen (NVS) Enzymatic Assay for human AMP-activated Protein Kinase, alpha 1 (AMPKa1) (AID 2283130)
# Method in brief: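 Recombinant human AMPKα1 activity was measured cell-free by fluorescent substrate conversion with electrophoretic mobility-shift separation, 1 h after dosing. Duplicate single-point screening was at 25 uM; actives (≥30% inhibition) were retested in concentration-response up to 50 uM.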
# [2] = target: human Fibroblast Growth Factor Receptor 1 (FGFR1), FGFR1 (gene 2260) (UniProt P11362); assay: NVS_ENZ_hFGFR1: NovaScreen (NVS) Enzymatic Assay for human Fibroblast Growth Factor Receptor 1 (FGFR1) (AID 2283159);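 for AC50: hits lower the signal so potencies describe inhibitors of the kinase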
# Method in brief: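 Cell-free recombinant kinase with fluorescent substrate, product separated by electrophoretic mobility shift; read 1 hour after dosing, loss of signal relative to DMSO. Initial screen in duplicate at 25 uM, actives followed in concentration series.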
# [3] = target: Caspase-1 (Homo sapiens) (UniProt P29466); assay: NVS_ENZ_hCASP1: NovaScreen (NVS) Enzymatic Assay for human Caspase 1 (CASP1) (AID 2283132)
# Method in brief: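 Cell-free enzymatic assay with E. coli-expressed recombinant protein; fluorescence intensity read 1 hour after dosing. Single-concentration duplicate screen at 25 uM, then concentration-response up to 50 uM; activity fitted relative to DMSO, loss of signal meaning inhibition.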
# [4] = tested on: rat Monoamine Oxidase, MAO-A, Peripheral (MAOAP), gene 29253; assay: NVS_ENZ_rMAOAP: NovaScreen (NVS) Enzymatic Assay for rat Monoamine Oxidase, MAO-A, Peripheral (MAOAP) (AID 2283237)
# Method in brief: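 Rat liver mitochondrial membranes served as the MAO-A source, with enzyme activity measured by radiometric scintillation counting 1.17 hours after dosing. Loss of signal was fitted against DMSO; primary screen used 25 uM in duplicate, follow-up used concentration series.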
# [5] = tested on: rat CYP2B1, gene 24300; assay: NVS_ADME_rCYP2B1: NovaScreen (NVS) CYP450-related Enzyme Activity (ADME) Assay for rat CYP2B1 (AID 2283117)
# Method in brief: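 Recombinant rat CYP2B1 with fluorogenic substrate, read at 0.75 h. Primary screen in duplicate at 10 uM; compounds meeting threshold (e.g., 30% inhibition) re-run in concentration-response up to 20 uM. Fitted against acetonitrile control.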
# [6] = target: human Ephrin type-A Receptor 2 (EphA2), EPHA2 (gene 1969) (UniProt P29317); assay: NVS_ENZ_hEphA2: NovaScreen (NVS) Enzymatic Assay for human Ephrin type-A Receptor 2 (EphA2) (AID 2283155)
# Method in brief: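 Cell-free recombinant EphA2 kinase with specific substrate, 1 h, fluorescence with electrophoretic mobility-shift separation of substrate and product. Primary screen at 25 uM in duplicate; hits retested in singleton concentration-response up to 50 uM, referenced to DMSO.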
# [7] = target: Protein deacetylase HDAC6 (Homo sapiens) (UniProt Q9UBN7); assay: NVS_ENZ_hHDAC6: NovaScreen (NVS) Enzymatic Assay for human Histone Deacetylase 6 (HDAC6) (AID 2283164)
# Method in brief: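 Recombinant human HDAC6 with fluorescent substrate, 1 h; product separated from substrate by electrophoretic mobility shift. Primary screen in duplicate at 25 uM; actives retested singly in concentration-response up to 50 uM, fitted relative to DMSO.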
# [8] = target: human Phosphatase and Tensin Homolog (PTEN), PTEN (gene 5728) (UniProt P60484); assay: NVS_ENZ_hPTEN: NovaScreen (NVS) Enzymatic Assay for human Phosphatase and Tensin Homolog (PTEN) (AID 2283203)
# Method in brief: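 Cell-free recombinant human PTEN with fluorescent substrate; product separated by electrophoretic mobility shift and read by fluorescence 1 h after dosing. Primary screen in duplicate at 25 uM, actives followed in concentration series versus DMSO.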
# [9] = target: human Protein Tyrosine Phosphatase Non-receptor Type 2 (PTPN2), PTPN2 (gene 5771) (UniProt P17706); assay: NVS_ENZ_hPTPN2: NovaScreen (NVS) Enzymatic Assay for human Protein Tyrosine Phosphatase Non-receptor Type 2 (PTPN2) (AID 2283207)
# Method in brief: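 Cell-free recombinant enzyme with fluorescent substrate, product separated by electrophoretic mobility shift; read 1 h after dosing. Primary screen single concentration (25 uM) in duplicate; actives followed in concentration series; loss of signal versus DMSO.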
# [10] = target: human Caspase 2 (CASP2), CASP2 (gene 835) (UniProt P42575); assay: NVS_ENZ_hCASP2: NovaScreen (NVS) Enzymatic Assay for human Caspase 2 (CASP2) (AID 2283135)
# Method in brief: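 E. coli-expressed enzyme in a cell-free protease assay, fluorescence read 1 h after dosing. Compounds at 25 uM in duplicate, with concentration-response up to 50 uM for hits; loss of signal against DMSO baseline.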
# [11] = target: human Ephrin type-B Receptor 2 (EphB2), EPHB2 (gene 2048) (UniProt P29323); assay: NVS_ENZ_hEphB2: NovaScreen (NVS) Enzymatic Assay for human Ephrin type-B Receptor 2 (EphB2) (AID 2283156)
# Method in brief: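 Recombinant kinase with fluorescent substrate, product separated by electrophoretic mobility shift, read 1 h after dosing. Duplicate 25 uM screen, then singleton concentration-response to 50 uM max; loss of signal versus DMSO.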
# [12] = target: human IkappaB Kinase alpha (IKKa), CHUK (gene 1147) (UniProt O15111); assay: NVS_ENZ_hIKKa: NovaScreen (NVS) Enzymatic Assay for human IkappaB Kinase alpha (IKKa) (AID 2283167)
# Method in brief: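 Cell-free recombinant human IKKa with fluorescent substrate, product separated by electrophoretic mobility shift; read 1 hour after dosing. Primary screen duplicate at 25 uM, actives then concentration-response up to 50 uM; loss of signal relative to DMSO.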
# [13] = target: rat Neurotensin Receptor (NTS), Ntsr1 (gene 366274) (UniProt P20789); assay: NVS_GPCR_rNTS: NovaScreen (NVS) G Protein-Coupled Receptor Assay for rat Neurotensin Receptor (NTS) (AID 2283308)
# Method in brief: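 Rat forebrain membranes; radioligand binding with competitive displacement, read by filter-based scintillation counting 1 h after dosing. Primary screen in duplicate at 25 uM; actives (e.g., 30% inhibition) rerun in concentration-response up to 50 uM, loss-of-signal versus DMSO.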
# [14] = target: rat CYP2C12, Cyp2c12 (gene 25011) (UniProt P11510); assay: NVS_ADME_rCYP2C12: NovaScreen (NVS) CYP450-related Enzyme Activity (ADME) Assay for rat CYP2C12 (AID 2283119)
# Method in brief: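 Cell-free recombinant rat CYP2C12 activity read by fluorescence 0.5 h after dosing; loss of signal versus acetonitrile control. Primary screen in duplicate at 10 uM; actives then run in concentration-response format.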
# [15] = target: human MET Proto-Oncogene, Receptor Tyrosine Kinase (MET), MET (gene 4233) (UniProt P08581); assay: NVS_ENZ_hMet: NovaScreen (NVS) Enzymatic Assay for human MET Proto-Oncogene, Receptor Tyrosine Kinase (MET) (AID 2283180)
# Method in brief: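 Cell-free MET kinase assay using recombinant protein and fluorescent substrate, with mobility-shift separation; read 1 h after dosing. Primary duplicate at 25 uM; actives in singleton concentration-response to 50 uM maximum. Signal loss versus DMSO.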
# [16] = target: bovine Gamma-Aminobutyric Acid Type A Receptor BDZ, alpha 1 site (GABARa1), GABRA1 (gene 780973) (UniProt P08219); assay: NVS_LGIC_bGABARa1: NovaScreen (NVS) Ligand-Gated Ion Channel Assay for bovine Gamma-Aminobutyric Acid Type A Receptor BDZ, alpha 1 site (GABARa1) (AID 2283321)
# Method in brief: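 Radioligand competition binding on bovine cortical membranes, 0.75 h, filter-based scintillation counting. Primary single concentration 25 uM in duplicate; actives rerun in concentration-response to 50 uM max. Loss of signal fitted versus DMSO.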
# [17] = target: PPP2CA (gene 5515) (UniProt P67775); assay: NVS_ENZ_hPPP2CA: NovaScreen (NVS) Enzymatic Assay for human Protein Phosphatase 2 Aatalytic subunit Alpha (PPP2CA) (AID 2283199)
# Method in brief: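 Recombinant human PPP2CA with fluorescent substrate; product separated from substrate by electrophoretic mobility shift, read 1.33 h after dosing. Duplicate single-point at 25 uM, then singleton concentration-response up to 50 uM; loss of signal versus DMSO.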
# [18] = target: human Epidermal Growth Factor Receptor (EGFR), EGFR (gene 1956) (UniProt P00533); assay: NVS_ENZ_hEGFR: NovaScreen (NVS) Enzymatic Assay for human Epidermal Growth Factor Receptor (EGFR) (AID 2283151)
# Method in brief: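 Cell-free kinase assay, fluorescence plus electrophoretic mobility shift separating substrate and product, read 1 hour after dosing; loss of signal vs DMSO. Duplicate screen at 25 uM, then concentration-response to 50 uM.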
# [19] = target: human Matrix Metalloproteinase-1 (MMP1), MMP1 (gene 4312) (UniProt P03956); assay: NVS_ENZ_hMMP1: NovaScreen (NVS) Enzymatic Assay for human Matrix Metalloproteinase-1 (MMP1) (AID 2283181)
# Method in brief: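 Human MMP1 enzyme activity measured by fluorescence 1 h after dosing, cell-free, with a specific substrate. Screened in duplicate at 25 uM; hits (e.g. 30% inhibition) run in concentration-response up to 50 uM; loss of signal versus DMSO.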
# [20] = target: human Protein Tyrosine Phosphatase Receptor Type C (PTPRC), PTPRC (gene 5788) (UniProt P08575); assay: NVS_ENZ_hPTPRC: NovaScreen (NVS) Enzymatic Assay for human Protein Tyrosine Phosphatase Receptor Type C (PTPRC) (AID 2283212)
# Method in brief: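 Yeast-extracted human PTPRC used in a cell-free colorimetric enzyme activity read-out, 1 h after dosing. Primary screen in duplicate at 25 uM; actives rerun in concentration-response up to 50 uM, DMSO as baseline.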
# [21] = target: human Tyrosine Protein Kinase Receptor Tie-2 (Tie2), TEK (gene 7010) (UniProt Q02763); assay: NVS_ENZ_hTie2: NovaScreen (NVS) Enzymatic Assay for human Tyrosine Protein Kinase Receptor Tie-2 (Tie2) (AID 2283225)
# Method in brief: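 Recombinant human Tie2 kinase activity was read cell-free by fluorescence with electrophoretic mobility shift, 1 hour after dosing. The screen used 25 uM in duplicate, then concentration-response up to 50 uM. Signal loss was scored against DMSO.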
# [22] = target: rat Oxytocin Receptor (OXT), Oxtr (gene 25342) (UniProt P70536); assay: NVS_GPCR_rOXT: NovaScreen (NVS) G Protein-Coupled Receptor Assay for rat Oxytocin Receptor (OXT) (AID 2283330)
# Method in brief: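 Radioligand displacement on rat uterine membranes, 1 h incubation, filter-based scintillation counting. Chemicals were screened in duplicate at 25 uM, and those passing threshold were retested in concentration-response up to 50 uM. Loss of binding was fitted versus DMSO.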
compound,measurement,setting,value
O=C(Nc1ccc(Cl)cc1)Nc1ccc(Cl)c(Cl)c1,AC50,[1],inconclusive: 25 µM
same,AC50,[2],inconclusive: 25 µM
Nc1ccc2c(c1)C(=O)c1ccccc1C2=O,outcome,[3],inactive
same,AC50,[4],active: 6.14 µM
N#CSCSc1nc2ccccc2s1,AC50,[5],active: 3.96 µM
same,AC50,[6],inconclusive: 25 µM
same,AC50,[7],active: 25 µM
same,outcome,[8],inactive
same,AC50,[9],inconclusive: 25 µM
same,AC50,[4],active: 25 µM
COc1cc(-c2nc(NC(=O)c3cc4cc(C)cc(C)c4n3CC(=O)O)sc2CCC2CCCCC2)c(OC)cc1Cl,AC50,[1],active: 8.19 µM
same,AC50,[10],active: 7.75 µM
CCCCCCC(C)OC(=O)COc1nc(F)c(Cl)c(N)c1Cl (stereo not drawn),outcome,[3],inactive
same,outcome,[11],inactive
same,AC50,[12],inconclusive: 25 µM
CN(C)c1ccc(C(=C2C=CC(=[N+](C)C)C=C2)c2ccc(N(C)C)cc2)cc1,outcome,[3],inactive
same,AC50,[13],active: 6.82 µM
CCCCOCCOCCOCc1cc2c(cc1CCC)OCO2,outcome,[14],inactive
Cc1ncc([C@@H](CCCCCCc2ccc3c(n2)NCCC3)CC(=O)O)cn1,outcome,[1],inactive
same,AC50,[7],active: 14.9 µM
same,outcome,[15],inactive
same,outcome,[8],inactive
COC(=O)c1ccccc1S(=O)(=O)NC(=O)Nc1nc(OC(F)F)cc(OC(F)F)n1,outcome,[14],inactive
same,AC50,[16],inconclusive: 25 µM
Cc1nc(-c2ccccn2)ncc1C(=O)Nn1cc(C)c2cc(F)ccc21,AC50,[1],inconclusive: 25 µM
same,outcome,[17],inactive
same,outcome,[8],inactive
same,AC50,[9],inconclusive: 45.9 µM
c1ccc(C[n+]2cccc3ccccc32)cc1,outcome,[1],inactive
O=C(NO)C1(NS(=O)(=O)c2ccc(Oc3ccc(F)cc3)cc2)CCOCC1,outcome,[1],inactive
same,AC50,[18],inconclusive: 25 µM
same,outcome,[6],inactive
same,outcome,[15],inactive
CC(C)(C)c1ccccc1,outcome,[1],inactive
same,AC50,[10],inconclusive: 25 µM
same,AC50,[19],inconclusive: 25 µM
Cc1ccc(C(C)(C)C)c(O)c1,outcome,[6],inactive
same,outcome,[2],inactive
same,AC50,[20],inconclusive: 0.0692 µM
CCN(CC)C(=O)c1cc(S(=O)(=O)Cc2ccccc2)c(N2CCC(c3ccccc3)CC2)cc1N(CC)CCN(C)C,outcome,[10],inactive
same,outcome,[21],inactive
same,AC50,[22],active: 6.13 µM
COC(=O)[C@H]1[C@H]2C[C@@H]3c4[nH]c5cc(OC)ccc5c4CCN3C[C@H]2C[C@@H](OC(=O)c2cc(OC)c(OC)c(OC)c2)[C@@H]1OC,outcome,[18],inactive
OCCOCCOCCO,AC50,[18],inconclusive: 25 µM
same,AC50,[6],inconclusive: 25 µM
same,outcome,[8],inactive
same,AC50,[21],inconclusive: 5.28 µM
C[Si]1(C)O[Si](C)(C)O[Si](C)(C)O[Si](C)(C)O1,AC50,[18],inconclusive: 25 µM
same,AC50,[2],inconclusive: 25 µM
Cc1ccc(N)cc1O,AC50,[6],active: 18.1 µM
same,outcome,[11],inactive
same,AC50,[12],inconclusive: 25 µM
same,AC50,[8],inconclusive: 0.115 µM

# Nothing new here: an excerpt of the list.
compound,measurement,setting,value
CN(C)c1ccc(C(=C2C=CC(=[N+](C)C)C=C2)c2ccc(N(C)C)cc2)cc1,AC50,[13],active: 6.82 µM
CCCCOCCOCCOCc1cc2c(cc1CCC)OCO2,outcome,[14],inactive
Cc1ncc([C@@H](CCCCCCc2ccc3c(n2)NCCC3)CC(=O)O)cn1,outcome,[1],inactive
